Experimental data: PubChem BioAssay AID743454 (Peter MacCallum Cancer Centre, 2014)
Test: 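Search for knock-downs that restore vorinostat killing in resistant colon cancer cells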 (primary screen). System: human HCT116-VR colon cancer cells, selected for vorinostat resistance. Reagent: siRNA pool against human genes, 40 nM siRNA pool. Timing: vorinostat for 24 h, read-out about 72 h after transfection. Treatment: vorinostat at 2.5 µM final. Read-out: 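Cell viability by CellTiter-Fluor and caspase 3/7 activity by luminescence, each scaled to mock wells per plate, duplicates averaged, then robust z-scored over all plates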. Reading the numbers: viability robust z-score: higher = more viable cells than screen typical; caspase robust z-score: higher = more caspase 3/7 activity than screen typical. Active means: 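Hits are knock-downs in viability class RV1/RV2 or caspase class CA1/CA2, excluding ones that killed cells in the no-drug cell-count arm; hits then retested with single siRNAs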.
In all, the deposit lists about 18,000 reagents; shown is an unselected part. Over the whole deposit, 450 (2.5%) are marked active. 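Single biological run; no consistent viability z cut-off exists, so the class columns, not z-scores, define the calls.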 A number with no mark means an inactive call. Reagent sequences are not shown.

The first 3 entries, to show the layout:
Target gene,viability hit class,caspase hit class,viability robust z-score,caspase robust z-score
CYTH1 (GeneID 9267),no change,no change,-0.12,1.2
NUP107 (GeneID 57122),no change,no change,-1.4,1.66
BHLHE41 (GeneID 79365),no change,no change,1.12,-0.59

Results, repeating the preview:
Target gene,viability hit class,caspase hit class,viability robust z-score,caspase robust z-score
CYTH1 (GeneID 9267),no change,no change,-0.12,1.2
NUP107 (GeneID 57122),no change,no change,-1.4,1.66
BHLHE41 (GeneID 79365),no change,no change,1.12,-0.59
ADAM12 (GeneID 8038),no change,no change,-0.32,0.66
RAMAC (GeneID 83640),no change,no change,1.06,0.48
OR2T35 (GeneID 403244),no change,no change,-0.4,-0.19
GTF2A1 (GeneID 2957),no change,no change,-0.43,0.16
MYLK (GeneID 4638),no change,no change,-0.42,-0.69
MON1B (GeneID 22879),no change,no change,0.71,-0.37
SLC2A4 (GeneID 6517),no change,no change,0.15,-0.66
RGL4 (GeneID 266747),no change,no change,-0.12,1.16
NFKB2 (GeneID 4791),no change,no change,0.73,-0.2
LCN9 (GeneID 392399),no change,no change,-1.32,0.86
XG (GeneID 7499),no change,no change,0.29,-0.32
LIPA (GeneID 3988),no change,no change,-0.41,0.03
TXNDC8 (GeneID 255220),no change,no change,-0.7,0.72
TTC12 (GeneID 54970),no change,no change,0.16,0.34
ALDH8A1 (GeneID 64577),no change,no change,0.42,1.48
PCTP (GeneID 58488),no change,no change,0.78,-0.48
SCYL3 (GeneID 57147),no change,no change,0.34,-1.03
CREBBP (GeneID 1387),no change,no change,-0.32,-0.74
SLC25A47 (GeneID 283600),no change,no change,0.66,1.12
RPS6KA3 (GeneID 6197),no change,no change,0.42,0.05
COL6A2 (GeneID 1292),no change,no change,-0.46,4.09
PABPC3 (GeneID 5042),no change,no change,-0.44,0.59
ANKRD2 (GeneID 26287),no change,no change,-0.96,3.34
MSRA (GeneID 4482),no change,no change,-1.19,0.46
IL1RAP (GeneID 3556),no change,no change,0.24,4.77
STX3 (GeneID 6809),no change,no change,0.84,-1.21
DNAJC9 (GeneID 23234),no change,no change,1.62,-0.43
LYRM1 (GeneID 57149),no change,no change,0.35,-0.73
CHFR (GeneID 55743),no change,no change,-1.95,1.46
WWC1 (GeneID 23286),no change,no change,0.42,-0.09
MARCHF4 (GeneID 57574),no change,no change,0,3.64
TTC27 (GeneID 55622),no change,no change,-0.76,-0.26
HAUS8 (GeneID 93323),no change,no change,0.46,0.18
ITPK1 (GeneID 3705),no change,no change,0.05,-0.55
KRTAP21-2 (GeneID 337978),no change,no change,-0.2,-1.01
DUSP19 (GeneID 142679),no change,no change,1.17,-0.57
VSTM2L (GeneID 128434),no change,no change,-1.65,-1.31
ZPR1 (GeneID 8882),no change,no change,-1.15,0.68
MPND (GeneID 84954),no change,no change,-0.99,0.56
LUZP2 (GeneID 338645),no change,no change,1.47,0.6
FAM111A (GeneID 63901),no change,no change,-1.76,1.1
RASGRF2 (GeneID 5924),no change,no change,-0.45,-0.02
NKX6-3 (GeneID 157848),no change (active),CA2 (caspase activation),-2.56,6.73
RPL24 (GeneID 6152),no change,no change,-4.83,-1.64
TAS1R2 (GeneID 80834),no change,no change,-2.1,4.26
C14orf39 (GeneID 317761),no change,no change,1.76,-0.33
PCIF1 (GeneID 63935),no change,no change,-0.24,-0.22
LGALS3 (GeneID 3958),no change,no change,0.28,-0.98
DNAH12 (GeneID 201625),no change,no change,-0.14,-0.38
NKX3-2 (GeneID 579),no change,no change,0.66,2.68
KLHDC1 (GeneID 122773),no change,no change,-0.36,-1.4
RELCH (GeneID 57614),no change,no change,1,1.55
ZNF470 (GeneID 388566),no change,no change,-0.68,1.56
NADK2 (GeneID 133686),no change,no change,-0.93,-0.52
HELLS (GeneID 3070),no change,no change,0.64,-0.37
AEN (GeneID 64782),no change,no change,0.08,0.09
PRIM1 (GeneID 5557),no change,no change,1.4,-0.51
CERS3 (GeneID 204219),no change,no change,-0.26,-0.77
MMP15 (GeneID 4324),no change,no change,-1.23,-0.87
CPNE3 (GeneID 8895),no change,no change,1.31,-1.1
CHN2 (GeneID 1124),no change,no change,-1.31,-1.04
TCP11L1 (GeneID 55346),no change,no change,0.18,-0.03
KCTD11 (GeneID 147040),no change,no change,-0.68,3.83
PIGA (GeneID 5277),no change,no change,1.29,-0.62
OR4N5 (GeneID 390437),no change,no change,0.22,0.09
GABPB1 (GeneID 2553),no change,no change,-1.02,0.48
CLVS1 (GeneID 157807),no change,no change,-0.57,-1.03
UCKL1 (GeneID 54963),no change,no change,-0.52,-0.9
RUSC1 (GeneID 23623),no change,no change,-0.01,-0.9
AWAT2 (GeneID 158835),no change,no change,1.1,-0.22
